Drawing on PubChem BioAssay AID2685 (National Center for Advancing Translational Sciences (NCATS), 2010), this text covers cell number change and AC50 for 61 compounds.

The list shows a part of the results. These are further read-outs of the screen, such as a control signal, another cell line or another target. No call is given for them. The list favours compounds with an active or inconclusive main result. Potencies come from curve fits of mixed quality, noted in brackets.

This assay can be described thus: qHTS Assay for Lipid Storage Modulators in Drosophila S3 Cells.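 For cell number change: cells counted by Cell Tracker Red CMTPX staining in the red channel.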 Conditions: BODIPY lipid droplet fluorescence, 18-24 h; for cell number change: measured here: cell count max response, cells fed with added oleic acid. A digest of the protocol:
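Drosophila S3 cells got compounds at several concentrations plus oleic acid (400 uM solution). Laser-scanning cytometry with 488 nm excitation read lipid droplets at 500-530 nm and cells at 575-640 nm. Percent activity was relative to 20 uM Triacsin C.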

[1] abbreviates: measured here: cell number channel AC50, cells fed with added oleic acid.
Setting [2] is: measured here: lipid fluorescence (Fed channel) AC50, cells fed with added oleic acid.

A word on the AC50: it is the midpoint of the concentration-response curve, whichever way the signal moves. A higher AC50 goes with activity only at high concentration. Turning to `CC(=O)N/C(=C\c1ccccc1)C(=O)OCc1ccc(C)cc1`, the cell number change was 43.2%. Moreover, the AC50 under setting [1] was 23.1 µM [rising, single point]. Further, under setting [2], the concentration at half-maximal activity (AC50) is 25.9 µM [rising, single point].

For `CC1=C(C(=O)OC(C)C)C(c2ccncc2)n2ncnc2N1` (configuration not stated), the AC50 under setting [1] was 0.184 µM [rising, full curve, poor fit].

Consider `CC1(C)CC(=O)C2=C(C1)OC(N)=C(C#N)C21CCC2(CC1)OCCO2`, for which the AC50 reads like this: under setting [1], 0.184 µM [rising, partial curve, poor fit]; under setting [2], 6.51 µM [rising, single point].

As for `O=C(Nc1ccc(F)cc1)OCCOc1ccc(Br)cc1`, the cell number change is -11.9%. Moreover, the AC50 under setting [2] is 0.00411 µM [rising, full curve, poor fit].

As for `CNC(=O)/C(C#N)=C/c1cn(CC(=O)NCc2ccco2)c2ccccc12`, the cell number change is -7.79%.

Take `O=C(COC(=O)c1cc(Br)ccc1Cl)NC(=O)NCc1ccccc1`: the cell number change stood at 2.22%. Besides, under setting [2], the AC50 is 0.13 µM [falling, full curve, poor fit].

As for `C=CCNc1nnc(SC2CC(=O)N(c3ccc(OC)cc3)C2=O)s1` (configuration not stated), the cell number change is -47%. Under setting [1], the AC50 was 29.1 µM [falling, single point]. Further, the AC50 under setting [2] was 29.1 µM [falling, single point].

For the compound `O=C(Oc1ccccc1)c1cccc(N2C(=O)CCC2=O)c1`, the cell number change was -9.19%. The AC50 under setting [1] was 0.231 µM [falling, partial curve]. The AC50 under setting [2] is 6.51 µM [falling, single point].

For `CCCCCCCCCCOC(=O)Cn1c(COc2cccc(C)c2)[n+](C)c2ccccc21`, the cell number change is -36.5%. Further, the AC50 under setting [1] was 9.2 µM [falling, partial curve]. The AC50 under setting [2] was 4.11 µM [falling, full curve].

As for `COc1cccc(NC(=O)C(Sc2nnnn2C)c2ccccc2)c1` (configuration not stated), the cell number change came to 7.95%.

For `CCCCCNC(=O)CN(c1ccc2c(c1)OCO2)S(C)(=O)=O`, the cell number change is -22.9%. Further, under setting [1], the AC50 is 0.00517 µM [falling, full curve, poor fit].

`CC[C@@]12C(=O)N(c3ccc(C)cc3)C(=O)N1[C@H](c1ccc(OC)cc1)[C@@H]1C(=O)N(C(C)(C)C)C(=O)[C@@H]12`: the cell number change was found to be 38.8%. Moreover, the AC50 under setting [2] is 18.4 µM [falling, single point].

Turning to `CCCNC(=O)c1onc(CSc2ccc(F)cc2)c1C(=O)NC(C)C`, the cell number change was -26.3%. In addition, the AC50 under setting [2] is 1.16 µM [falling, full curve, poor fit].

On to `NC(N)=N/N=C/c1ccc(Cl)c([N+](=O)[O-])c1`, for which the cell number change was 30.8%. Moreover, the AC50 under setting [1] was 1.46 µM [rising, full curve]. In addition, the AC50 under setting [2] was 1.64 µM [rising, partial curve, poor fit].

For `O=[N+]([O-])c1cccc(C2Nc3cccc4cccc(c34)N2)c1`, the cell number change was -24.8%. Besides, under setting [2], the AC50 is 23.1 µM [falling, partial curve, poor fit].

Regarding `CCCCC(c1nnnn1Cc1ccco1)N1CCN(c2nc3ccccc3s2)CC1` (configuration not stated), the cell number change is -20%.

As to `O=S(=O)(c1cccc(Cn2nnc(-c3ccc(F)cc3)n2)c1)N1CCOCC1`, the cell number change is -25.5%. In addition, under setting [2], the AC50 was 29.1 µM [falling, single point].

On to `COc1ccc(C(c2c(C)n(C)n(-c3ccccc3)c2=O)c2c(C)n(C)n(-c3ccccc3)c2=O)cc1`, for which the cell number change was -8.13%. Under setting [2], the AC50 is 0.326 µM [rising, single point].

For `CCOC(=O)C1=C(C)N(CCCC(=O)O)C(=O)NC1c1ccc([N+](=O)[O-])cc1` (configuration not stated), the cell number change was -12.6%. The concentration at half-maximal activity (AC50) under setting [2] is 0.82 µM [falling, full curve, poor fit].

With `CCOc1ccc(NC(=O)C/C(C)=N/NC(=O)Cc2ccc(Cl)cc2)cc1`, the cell number change turned out to be 20.5%.

Turning to `Cc1ccccc1C(=O)Nc1nncs1`, the AC50 under setting [1] is 1.16 µM [falling, full curve].

Consider `COc1ccc(NC(=O)C2CCN(c3cc(C)nc(-c4ccccc4)n3)CC2)cc1`, for which the cell number change was -38.5%. Besides, the AC50 under setting [1] was 23.1 µM [falling, single point].

Take `CC(C)CCCN1C(Nc2ccccc2)=NC[C@@H]1CC(C)C`: the cell number change worked out at 3.29%.

With `COC(=O)c1sc(S(=O)(=O)N2CCC(C(N)=O)CC2)c(C(=O)OC)c1C`, the cell number change was 59.3%. For the same compound, under setting [1], the AC50 was 20.6 µM [rising, single point]. Moreover, under setting [2], the AC50 is 0.0731 µM [falling, full curve, poor fit].

On to `Cc1ccc(S(=O)(=O)NCc2cccnc2)c(C)c1`, for which the cell number change was found to be 4.38%.

As for `CC(C)CN1C(=O)c2ccc(NC(=O)Cc3ccccc3)cc2C1=O`, the cell number change was determined as 159%. Further, the AC50 under setting [1] is 16.4 µM [rising, partial curve].

With `FC(F)(F)c1nc(-c2cccs2)ncc1-c1nnnn1-c1ccc(Cl)cc1`, the cell number change was -14.2%. For the same compound, the AC50 under setting [2] was 14.6 µM [falling, single point].

In the case of `O=C(CN1CCOCC1)Nc1ccc(S(=O)(=O)N2CCCCCC2)cc1`, the cell number change worked out at 2.33%.

In the case of `O=c1oc2ccccc2cc1-c1ccccc1`, the cell number change amounted to 3.97%. Further, the AC50 under setting [2] was 6.51 µM [rising, partial curve].

Turning to `CN(C)CC(=O)Nc1ccc(S(N)(=O)=O)cc1`, the cell number change was -13.5%.

With `Cc1cc(N2CCN(c3cccc(C(F)(F)F)c3)CC2)n2ncnc2n1`, the cell number change was -20.4%.

On to `COc1ccc(Cl)cc1NC(=O)/C=C\C(=O)O`, for which the AC50 under setting [1] is 7.31 µM [falling, single point].

`O=C(CCCOc1ccc(Cl)cc1Cl)NCCc1ccccn1`: the cell number change came to 17.9%. The AC50 under setting [1] was 0.103 µM [rising, full curve, poor fit].

`CN(C(=O)c1ccc2ccccc2c1)c1ccccn1`: the cell number change was -40.8%. The AC50 under setting [1] is 25.9 µM [falling, partial curve, poor fit].

Consider `O=C(NCC(c1cccnc1)N1CCN(c2ccccc2)CC1)OCc1ccccc1` (configuration not stated), for which the cell number change was -27.3%.

Regarding `CCCCn1c(N)c(N(Cc2ccccc2OC)C(=O)C(C)C)c(=O)[nH]c1=O`, the cell number change is 12.4%.

Take `COCCCNC(=O)c1ccccc1Sc1ccc(NC(C)=O)nc1`: the cell number change was found to be 58.4%. The AC50 under setting [1] is 29.1 µM [rising, single point].

Consider `Cc1ccccc1N1C(=O)C(Oc2ccc(Cl)cc2)C1CNCCCOC(C)C` (configuration not stated), for which the AC50 under setting [2] was 1.84 µM [falling, full curve, poor fit].

Turning to `CC(C)[C@H](NC(=O)OCc1ccccc1)C(=O)OCC(=O)NC1CCCCC1`, the cell number change worked out at 93.5%. Also, under setting [1], the AC50 was 20.6 µM [rising, partial curve]. Moreover, the AC50 under setting [2] is 0.00461 µM [rising, full curve, poor fit].

As for `Cc1ccc(OCCSc2nc3ncnc(N)c3[nH]2)cc1`, the cell number change was found to be 9.65%. Besides, the AC50 under setting [2] was 6.51 µM [rising, single point].

On to `O=C(COc1cccc2cccnc12)Nc1nccs1`, for which the cell number change was -14.4%. Also, the concentration at half-maximal activity (AC50) under setting [2] is 0.092 µM [rising, full curve, poor fit].

As for `CSc1ncccc1C(=O)OCC(=O)C(C)(C)C`, the cell number change was 5.13%.

In the case of `CCCCn1c(N)c(N(CCOC)C(=O)c2cc(-c3ccc(OC)cc3)nc3ccccc23)c(=O)[nH]c1=O`, the cell number change amounted to 38.3%. Besides, under setting [1], the AC50 was 16.4 µM [rising, partial curve].

On to `O=C(CCC1CCCC1)NCCS(=O)(=O)N1CCN(c2ccccc2F)CC1`, for which the cell number change worked out at 51.9%. Moreover, the AC50 under setting [1] is 18.4 µM [rising, partial curve, poor fit].

As for `Cc1ccc(O)c(N=Nc2ccc(S(=O)(=O)N3CCCC3)cc2)c1`, the cell number change is -21.9%. The AC50 under setting [2] is 2.91 µM [falling, partial curve].

For `O=C(COc1ccccc1F)N1CCCc2ccccc21`, the cell number change was -28.8%. For the same compound, the AC50 under setting [2] is 0.13 µM [rising, full curve, poor fit].

Regarding `CCCn1c(=NC(=O)c2ccco2)c(C(=O)OCC)cc2c(=O)n3ccccc3nc21`, the cell number change came out at 0.391%. The AC50 under setting [2] was 3.26 µM [rising, partial curve].

Regarding `COc1ccc(-n2c(Cc3cccn3C)nnc2SCC(=O)Nc2ccc3c(c2)OCCO3)cc1`, the cell number change turned out to be 73.1%. The AC50 under setting [1] is 29.1 µM [rising, partial curve, poor fit]. For the same compound, under setting [2], the half-maximal activity concentration (AC50) is 29.1 µM [rising, single point].

On to `CC(C)Sc1nc2c(c(=O)[nH]c(=O)n2C)n1Cc1ccc(Cl)cc1`, for which the cell number change was -18.2%. Besides, the concentration at half-maximal activity (AC50) under setting [2] is 0.00461 µM [falling, full curve, poor fit].

As to `COCCNCCOc1ccccc1-c1ccccc1`, the cell number change stood at 34.4%. Moreover, the AC50 under setting [1] is 8.2 µM [rising, partial curve, poor fit]. Also, under setting [2], the AC50 is 13 µM [rising, partial curve].

Take `CCOc1ccc(-c2[nH]ncc2-c2ccccc2)c(O)c1`: the cell number change was -6.78%.

For `CCN(CC)S(=O)(=O)c1cccc(NC(=O)c2cncc(Br)c2)c1`, the cell number change was -20.8%. Besides, the half-maximal activity concentration (AC50) under setting [2] was 0.82 µM [falling, full curve, poor fit].

`Cc1ncc(S(=O)(=O)c2ccc(Cl)cc2)c(-c2ccccc2)n1`: the cell number change came to 12%. Moreover, the AC50 under setting [1] was 2.59 µM [falling, partial curve]. The AC50 under setting [2] is 2.91 µM [falling, single point].

Turning to `CC(=O)c1cccc(NC(=O)c2cc(-c3ccc(C)cc3)on2)c1`, the AC50 under setting [2] is 2.91 µM [falling, partial curve].

For the compound `O=C(CN1CCN(c2ccc(F)cc2)CC1)c1ccc(O)cc1O`, the cell number change is -17%. Moreover, the AC50 under setting [2] is 0.00517 µM [falling, full curve, poor fit].

Turning to `COc1ccccc1N1CCN(C(=O)NCc2cccc(C(F)(F)F)c2)CC1`, the cell number change worked out at 10.4%. Under setting [2], the AC50 was 29.1 µM [rising, single point].

Take `COc1ccccc1N1CC(C(=O)Nc2nc(C)cs2)CC1=O` (configuration not stated): the cell number change amounted to 11.8%.

`CN(C)CCN1C(=O)C(=O)/C(=C(/O)c2ccc(S(=O)(=O)N3CCOCC3)cc2)C1c1ccccc1` (configuration not stated): the cell number change was 40.1%. The AC50 under setting [1] is 0.92 µM [rising, full curve, poor fit].

Regarding `Cc1onc(-c2c(F)cccc2Cl)c1C(=O)Nc1nc2ccccc2[nH]1`, the half-maximal activity concentration (AC50) under setting [1] was 0.92 µM [rising, partial curve].

Consider `Cc1c(Cl)cccc1NCC(=O)NN=C1CCCC1`, for which the cell number change was -26.9%. Further, the AC50 under setting [2] is 16.4 µM [falling, partial curve, poor fit].

Turning to `CCN(CC)C(=O)COc1ccc(-c2nnc(N3CCCCC3)c3ccccc23)cc1`, the AC50 is 2.91 µM [rising, partial curve] under setting [1] and 6.51 µM [rising, single point] under setting [2].
